# The list shows a part of the results. Further columns of the screen follow, without active or inactive calls. Most of these compounds were active or inconclusive in the main read-out, so they are no random draw. Words in brackets tell the shape of the fitted curve; partial curves, single points and poor fits give uncertain potencies.
# Test: qHTS Assay to Find Inhibitors of Chronic Active B-Cell Receptor Signaling
# Details: ABC-DLBCL IkBa-CBG/CBR reporter, luminescence ratio (green luciferase fused to IkBa over red control in TMD8 lymphoma cells), 4 h
# How it was run: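 Doxycycline induced both beetle luciferases in TMD8 lymphoma cells; IKK-driven degradation limits the IkappaBalpha-fused green signal, while red luminescence normalises for cell number and nonspecific effects. Compounds tested up to 46 uM, 4 hrs.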
# [1] = measured here: CBR red luminescence, cell number
# [2] = measured here: IkBa-CBG green luminescence
smiles,measurement,setting,value
CCOc1ccc(C(=O)Nc2ccccc2N2CCOCC2)cc1,AC50,[1],"35.5 µM [rising, single point]"
CCc1nc2c(c(=O)c3ccccc3n2C)c(=O)n1CCc1ccc(OC)cc1,AC50,[1],"2.59 µM [falling, full curve]"
Cc1nc(NC(=O)COc2ccccc2)sc1C(=O)Nc1cccc(Cl)c1,AC50,[1],"8.91 µM [falling, partial curve, poor fit]"
O=C(CCN1CCc2ccccc2C1)Nc1ccccc1,AC50,[1],"15.8 µM [falling, single point]"
CCOc1ccccc1NC(=O)c1ccc(S(=O)(=O)N(C)C)cc1,AC50,[1],"20.6 µM [falling, partial curve, poor fit]"
CN1CCN(c2ccccc2/C=C2/C(=O)Nc3ccccc32)CC1,AC50,[1],"10 µM [falling, single point]"
C=CCNc1nc(Nc2ccc(Cl)cc2)nc(OC)n1,AC50,[1],"3.98 µM [rising, single point]"
CC(/C=N\NC(=O)c1ccc2c(c1)OCO2)c1ccccc1 (configuration not stated),AC50,[1],"3.55 µM [falling, partial curve]"
COc1ccc(Cn2cccc(NC(=O)Nc3cccc(OC)c3)c2=O)cc1,AC50,[1],"7.08 µM [falling, full curve]"
O=C(COC(=O)c1n[nH]c2ccccc12)NC(=O)NC1CCCC1,AC50,[1],"23.1 µM [falling, partial curve, poor fit]"
CCSc1nnc(-c2cnn(-c3ccccc3)c2-n2cccc2)n1C,AC50,[1],"0.92 µM [falling, full curve, poor fit]"
O=C(CCc1nnc(Cc2ccc3c(c2)OCO3)o1)NCc1nc2ccccc2s1,AC50,[1],"35.5 µM [falling, single point]"
CCOC(=O)c1[nH]c(C)c(/C(O)=C2\C(=O)C(=O)N(CCN(C)C)C2c2ccncc2)c1C (configuration not stated),AC50,[1],"0.103 µM [falling, partial curve, poor fit]"
NNC(=O)CN1C(c2ccc(Br)cc2)=Nc2ccc(Br)cc2C1c1ccccc1 (configuration not stated),AC50,[1],"4.11 µM [falling, partial curve, poor fit]"
Cc1c(/C=N/NC(=O)c2cc(Br)ccc2O)c(=O)n(C)c(=O)n1C,AC50,[1],"0.447 µM [falling, full curve, poor fit]"
CC(C(=O)Nc1ccccc1-c1ccccc1)N1CCN(C(=O)c2ccccc2)CC1 (configuration not stated),AC50,[1],"28.2 µM [falling, single point]"
CCOC(=O)c1[nH]c(C)c(C(=O)OCC(=O)NC2CCS(=O)(=O)C2)c1C (configuration not stated),AC50,[1],"35.5 µM [falling, single point]"
O=C(NCCCN1CCOCC1)c1ccc2c(c1)N(Cc1ccccc1F)C(=O)c1ccccc1S2=O (configuration not stated),AC50,[1],"28.2 µM [falling, partial curve, poor fit]"
Nc1c(C(=O)Nc2ccccc2F)sc2nc(-c3ccco3)ccc12,AC50,[1],"15.8 µM [falling, single point]"
O=[N+]([O-])c1ccc(O)c(/C=N/Nc2ccc(Cl)nn2)c1,AC50,[1],"2 µM [falling, full curve]"
CCCc1nnc(NC(=O)CCC(=O)N2CCN(c3ccccn3)CC2)s1,AC50,[1],"3.16 µM [rising, partial curve, poor fit]"
O=C(NCc1cccc(Cl)c1)NC(=O)c1csc([N+](=O)[O-])c1,AC50,[1],"35.5 µM [rising, single point]"
COc1ccc(S(=O)(=O)N2CCOCC2)cc1C(=O)Nc1cc(C)on1,AC50,[1],"14.6 µM [rising, partial curve]"
Cc1c(Cl)cccc1NC(=S)NNS(=O)(=O)c1ccc([N+](=O)[O-])cc1,AC50,[1],"0.891 µM [falling, partial curve, poor fit]"
NNC(=O)CN1C(c2ccccc2Br)=Nc2ccc(Br)cc2C1c1ccccc1 (configuration not stated),AC50,[1],"7.31 µM [falling, partial curve]"
CCOC(=O)CN1C(=O)S/C(=C/c2cc(C)n(-c3ccccn3)c2C)C1=O,AC50,[1],"16.4 µM [rising, single point]"
CCOC(=O)c1ccc(Nc2nc(-c3cccnc3)nc3ccccc23)cc1,AC50,[1],"17.8 µM [falling, partial curve, poor fit]"
COc1ccc(/C=N/NC(=O)C2c3ccccc3Oc3ccccc32)c(OC)c1,AC50,[1],"29.1 µM [rising, single point]"
N#Cc1cn(-c2ccccc2)nc1-c1cc2ccccc2oc1=O,AC50,[1],"0.116 µM [rising, full curve, poor fit]"
O=C(Nc1ccc(F)c([N+](=O)[O-])c1)c1ccc2c(c1)C(=O)OC2=O,AC50,[1],"10 µM [falling, partial curve]"
CCCCOc1ccc(CN2CCCCC2)cc1,AC50,[1],"29.1 µM [rising, single point]"
COc1ccc(C(=O)NCc2ccccc2C)cc1S(=O)(=O)NC1CCCC1,AC50,[1],"9.2 µM [falling, partial curve, poor fit]"
CCC1CCCCN1CCCNC(=O)C1CCC(=O)N1Cc1ccc(C)cc1 (configuration not stated),AC50,[1],"0.178 µM [rising, full curve, poor fit]"
Cn1c(Br)nc2c1c(=O)n(Cc1ccccc1)c(=O)n2C,AC50,[1],"17.8 µM [falling, single point]"
CC(C)c1ccc(NC(=O)c2cc(S(=O)(=O)NCc3ccccc3Cl)ccc2F)cc1,AC50,[1],"11.2 µM [rising, partial curve]"
same,AC50,[2],"15.8 µM [falling, partial curve, poor fit]"
Cc1ccc(-c2cc(C(=O)N3CCN(C(=O)c4ccco4)CC3)no2)cc1,AC50,[1],"6.51 µM [rising, single point]"
same,AC50,[2],"6.51 µM [falling, single point]"
CN(C)CCCN1C(=O)c2cccc3c(Br)ccc(c23)C1=O,AC50,[1],"15.8 µM [falling, partial curve, poor fit]"
same,AC50,[2],"10 µM [rising, partial curve, poor fit]"
CC(C)(C)C(=O)NC(=S)Nc1sc2c(c1C(N)=O)CCC2,AC50,[1],"11.2 µM [falling, partial curve]"
O=C(O)Cc1csc(-c2cccc(F)c2)n1,AC50,[1],"3.98 µM [rising, partial curve, poor fit]"
same,AC50,[2],"5.62 µM [rising, partial curve, poor fit]"
Cc1cccc(C)c1NC(=O)/C(=C/c1ccco1)c1ccccc1,AC50,[1],"6.51 µM [rising, single point]"
CCN(CC)c1ccc(/C=C2\NC(=O)NC2=O)cc1,AC50,[1],"7.31 µM [rising, partial curve]"
CCOc1ccc(NC(=O)CSC2=Nc3ccccc3C3=NC(CC(=O)NCc4ccco4)C(=O)N23)cc1 (configuration not stated),AC50,[1],"1.26 µM [rising, full curve, poor fit]"
CCC1CCC(NC(=O)Nc2cccc(OC)c2)CC1 (configuration not stated),AC50,[1],"31.6 µM [rising, single point]"
S=c1[nH]nc(-c2cc3c(s2)-c2ccccc2CC3)o1,AC50,[1],"16.4 µM [falling, single point]"
O=C(/C=C/c1ccccc1Cl)NC(=S)Nc1ccccc1C(=O)NC1CCCCC1,AC50,[1],"0.112 µM [rising, full curve, poor fit]"
Cc1cccc(-n2c(C)cc(C)c(C#N)c2=O)c1,AC50,[1],"10 µM [rising, partial curve, poor fit]"
COc1ccc(-c2sc3ccccc3c2/C=C/c2ccc(N)cc2)cc1,AC50,[1],"2.59 µM [rising, partial curve, poor fit]"
COc1ccc(C(c2c(O)ccc3ccccc23)N2CCOCC2)c(OC)c1 (configuration not stated),AC50,[1],"22.4 µM [falling, single point]"
CCOc1ccc(-c2nnn(CC(=O)NCc3cccs3)n2)cc1,AC50,[1],"11.2 µM [rising, partial curve, poor fit]"
CN(CCCC(=O)NCc1ccccc1)S(=O)(=O)c1ccc([N+](=O)[O-])cc1,AC50,[1],"0.1 µM [rising, full curve, poor fit]"
CCOc1ccc(/C=C2/Sc3ccc(C(=O)N4CCN(C(=O)c5ccco5)CC4)cc3N(C)C2=O)cc1OC,AC50,[1],"35.5 µM [falling, single point]"
COCCn1c(=S)[nH]c2cc(C(=O)N3CCCC(C)C3)ccc2c1=O (configuration not stated),AC50,[1],"0.316 µM [falling, full curve, poor fit]"
O=C(CN1C(=O)COc2ccccc21)N(Cc1cccnc1)Cc1ccccc1F,AC50,[1],"2.31 µM [falling, partial curve, poor fit]"
O=C(Nc1ccc(N2CCCCC2)cc1)c1cncc(Br)c1,AC50,[1],"6.31 µM [falling, single point]"
C(=N\N=C\c1cccs1)/c1cccs1,AC50,[1],"0.708 µM [rising, full curve]"
COc1cc(S(=O)(=O)Nc2cc(C)cc(C)c2)ccc1F,AC50,[1],"13 µM [falling, partial curve]"
Cc1cccc(NC(=O)c2cc3n(n2)C(C(F)(F)F)CC(C2CC2)N3)c1C (configuration not stated),AC50,[1],"2.91 µM [rising, single point]"
CCCNc1nc(Nc2ccc(C)c(Cl)c2)c2cnn(C)c2n1,AC50,[1],"22.4 µM [falling, single point]"
CCOC(=O)c1ccccc1NC1c2ccccc2C(=O)N1c1ccc(C)cn1 (configuration not stated),AC50,[1],"25.9 µM [rising, single point]"
CC(=O)c1ccc(OCC(O)CN2CCN(S(=O)(=O)c3c(C)cc(C)cc3C)CC2)cc1 (configuration not stated),AC50,[1],"15.8 µM [rising, partial curve, poor fit]"
COc1cccc(NC(=O)c2cnn(-c3ccccc3)c2-n2cccc2)c1,AC50,[1],"35.5 µM [falling, single point]"
same,AC50,[2],"3.98 µM [rising, full curve, poor fit]"
Cc1ccc(-n2[nH]c(C)c(/C=N/NC(=O)c3cccc([N+](=O)[O-])c3)c2=O)cc1C,AC50,[1],"2.59 µM [falling, single point]"

# Part of the list above, reformatted.
smiles | measurement | setting | value
CCOC(=O)c1[nH]c(C)c(C(=O)OCC(=O)NC2CCS(=O)(=O)C2)c1C (configuration not stated) | AC50 | [1] | 35.5 µM [falling, single point]
O=C(NCCCN1CCOCC1)c1ccc2c(c1)N(Cc1ccccc1F)C(=O)c1ccccc1S2=O (configuration not stated) | AC50 | [1] | 28.2 µM [falling, partial curve, poor fit]
O=C(/C=C/c1ccccc1Cl)NC(=S)Nc1ccccc1C(=O)NC1CCCCC1 | AC50 | [1] | 0.112 µM [rising, full curve, poor fit]
O=C(Nc1ccc(N2CCCCC2)cc1)c1cncc(Br)c1 | AC50 | [1] | 6.31 µM [falling, single point]
CCOC(=O)c1ccccc1NC1c2ccccc2C(=O)N1c1ccc(C)cn1 (configuration not stated) | AC50 | [1] | 25.9 µM [rising, single point]

# From PubChem BioAssay AID493014 (National Center for Advancing Translational Sciences (NCATS), 2011)
